Measurements reported in PubChem BioAssay AID504793 (Drosophila RNAi Screening Center, 2011).

Screen: 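Genes required for cells to halt at G2/M after double-strand DNA breaks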 (primary screen)
Cell system: Drosophila S2R+ cells
Reagent: long dsRNA against Drosophila genes, about 0.25 µg dsRNA per well
Time to read-out: 4 days of dsRNA, then 4 hours of drug before read-out
Conditions: doxorubicin 0.5 µM for 4 hours to cause double-strand breaks, in cells also given a low, harmless dose of dsRNA against nbs to sensitise the assay
Detection: 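Mitotic index as the number of phospho-histone H3-positive cells in each well following doxorubicin, given as raw counts without normalisation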
Reading the numbers: mitotic cells: higher = more cells in mitosis, weaker G2 arrest
Call rule: 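a call needs confirmation in secondary tests, with other dsRNAs and a check of mitotic timing without damage, not just a high primary count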
Meaning of the calls: active = confirmed in follow-up tests; inactive = not confirmed
The deposit covers about 23,000 reagents; below is an unselected part of those that have a named target and a result. Over the whole deposit, 62 (0.27%) were called active. 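Calls come from follow-up tests whose scores are not deposited, so confirmed genes may have low counts here; counts are not normalised per plate.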 Raw values vary from plate to plate and are shown uncorrected. The numbers tell different reagents against one gene apart. A plus sign joins genes that one reagent is predicted to hit. No sequences are given here.

Silencing of CG10845 (GeneID 42978) came out at: mitotic cells, replicate 1 = 14; inactive.
Depletion of CG32228 (GeneID 326202) resulted in: mitotic cells, replicate 1 = 11; inactive.
Depletion of sgl (GeneID 38760) #1 came out at: mitotic cells, replicate 1 = 13; inactive.
Knock-down of sgl (GeneID 38760) #2 gave: mitotic cells, replicate 1 = 8; inactive.
wkd (GeneID 41390) scored mitotic cells, replicate 1 = 6; inactive.
After knock-down of ninaB (GeneID 41678) #1 the results were mitotic cells, replicate 1 = 5; inactive.
ninaB (GeneID 41678) #2 scored mitotic cells, replicate 1 = 3; inactive.
Silencing of Snx1 (GeneID 33560) came out at: mitotic cells, replicate 1 = 5; inactive.
For per (GeneID 31251) #1 the deposit lists mitotic cells, replicate 1 = 8; inactive.
For per (GeneID 31251) #2, the values are mitotic cells, replicate 1 = 7; inactive.
After knock-down of Tom70 (GeneID 34618) the results were mitotic cells, replicate 1 = 2; mitotic cells, replicate 2 = 19; inactive.
CG4956 (GeneID 43114) #1 scored mitotic cells, replicate 1 = 10; inactive.
For CG4956 (GeneID 43114) #2 the deposit lists mitotic cells, replicate 1 = 4; inactive.
sala (GeneID 34570) #1 showed mitotic cells, replicate 1 = 4; inactive.
sala (GeneID 34570) #2 scored mitotic cells, replicate 1 = 7; inactive.
For CG18528 (GeneID 42906) the deposit lists mitotic cells, replicate 1 = 13; inactive.

Quoted from the entries so far (3 entries):
per (GeneID 31251) #1 | mitotic cells, replicate 1: 8; activity call: inactive
per (GeneID 31251) #2 | mitotic cells, replicate 1: 7; activity call: inactive
Tom70 (GeneID 34618) | mitotic cells, replicate 1: 2; mitotic cells, replicate 2: 19; activity call: inactive

Next records follow:
Against Taz (GeneID 36405) #1 the deposit lists mitotic cells, replicate 1 = 11; inactive.
Taz (GeneID 36405) #2 gave mitotic cells, replicate 1 = 7; inactive.
Against Taz (GeneID 36405) #3, the entry reads mitotic cells, replicate 1 = 7; inactive.
CG15473 (GeneID 31401) gave mitotic cells, replicate 1 = 10; inactive.
With knock-down of sbm (GeneID 32397), the screen gave mitotic cells, replicate 1 = 15; inactive.
Nplp1 (GeneID 38003) showed mitotic cells, replicate 1 = 3; inactive.
With knock-down of CG13086 (GeneID 35208) #1 the results were mitotic cells, replicate 1 = 9; inactive.
CG13086 (GeneID 35208) #2 showed mitotic cells, replicate 1 = 9; inactive.
After knock-down of Josd (GeneID 31560) the results were mitotic cells, replicate 1 = 11; inactive.
With knock-down of mRpS29 (GeneID 37563) #1, the record shows mitotic cells, replicate 1 = 5; inactive.
With knock-down of mRpS29 (GeneID 37563) #2 the results were mitotic cells, replicate 1 = 10; inactive.
After knock-down of CG42750 (GeneID 35090) #1 the results were mitotic cells, replicate 1 = 4; inactive.
With knock-down of CG42750 (GeneID 35090) #2, the record shows mitotic cells, replicate 1 = 10; inactive.
CG42750 (GeneID 35090) #3 gave mitotic cells, replicate 1 = 8; inactive.
CG42750 (GeneID 35090) #4 scored mitotic cells, replicate 1 = 7; inactive.
After knock-down of CG42750 (GeneID 35090) #5, the record shows mitotic cells, replicate 1 = 6; inactive.
After knock-down of CG42750 (GeneID 35090) #6 the results were mitotic cells, replicate 1 = 2; inactive.
Obp50c + Obp50b scored mitotic cells, replicate 1 = 3; inactive.
pot (GeneID 32154) #1 showed mitotic cells, replicate 1 = 2; inactive.
pot (GeneID 32154) #2 showed mitotic cells, replicate 1 = 5; inactive.
Depletion of Dad (GeneID 42059) #1 came out at: mitotic cells, replicate 1 = 9; inactive.
After knock-down of Dad (GeneID 42059) #2, the screen gave mitotic cells, replicate 1 = 3; inactive.
Knock-down of CG10000 (GeneID 43394) #1 came out at: mitotic cells, replicate 1 = 10; inactive.
After knock-down of CG10000 (GeneID 43394) #2, the screen gave mitotic cells, replicate 1 = 7; inactive.
CG10591 (GeneID 38634) #1 scored mitotic cells, replicate 1 = 7; inactive.
After knock-down of CG10591 (GeneID 38634) #2, the record shows mitotic cells, replicate 1 = 6; inactive.
After knock-down of CG6614 (GeneID 34583), the screen gave mitotic cells, replicate 1 = 4; inactive.
